Experimental data published in the supplement of paper PMC11438910.
The list shows a part of the results. Only a few entries rise above the background.

What was measured:
Experiment in all cases: fluorescence intensity of antibody binding to polysaccharide-coupled beads; higher = stronger binding
[1] = target: pneumococcal polysaccharide Pn15B
[2] = target: pneumococcal polysaccharide Pn15C
[3] = target: pneumococcal polysaccharide Pn15F
[4] = target: pneumococcal polysaccharide Pn16A
[5] = target: pneumococcal polysaccharide Pn16F
[6] = target: pneumococcal polysaccharide Pn17A
[7] = target: pneumococcal polysaccharide Pn17F
[8] = target: pneumococcal polysaccharide Pn18A
[9] = target: pneumococcal polysaccharide Pn18B
[10] = target: pneumococcal polysaccharide Pn18C
[11] = target: pneumococcal polysaccharide Pn18F
[12] = target: pneumococcal polysaccharide Pn19A
[13] = antibody concentration 2337.65 ng/mL
[14] = antibody concentration 12500 ng/mL
[15] = antibody concentration 0.1 ng/mL
[16] = antibody concentration 0.534724 ng/mL
[17] = antibody concentration 2.8593 ng/mL
[18] = antibody concentration 15.2894 ng/mL
[19] = antibody concentration 81.7561 ng/mL
[20] = antibody concentration 437.17 ng/mL

B1: 4-99.3 (protein)
chain 1: QVQLQESGPGLVKPSETLSLTCAVSGYSISSGYYWGWIRQPPGKGLEYIGYISGSWGKSYYKPSLKSRVTISKDTSKNQFSLTLSSVTAADTAVYYCARRLEYVGFDVWGPGVLVTVSS
chain 2: QAAPTQPPSVSGSPGQSVTISCTGTSSDIGYYNAVSWYQQHPGKAPKLMIYEVSKRPSGVSDRFSGSKSGNTASLTISGLQAEDEADYYCSSYAGSNTYIFGSGTRLTVL
How did the fluorescence intensity [1, 13] turn out when B1 was run?
Its fluorescence intensity is 23 MFI.

And the fluorescence intensity [1, 14]?
The fluorescence intensity was 45.2 MFI.

What about the fluorescence intensity [2, 15] of the same binder?
The fluorescence intensity was 15 MFI.

And the fluorescence intensity [2, 16]?
The fluorescence intensity was 17 MFI.

And the fluorescence intensity [2, 17]?
The fluorescence intensity was 17 MFI.

What about the fluorescence intensity [2, 18] of the same binder?
Its fluorescence intensity is 16 MFI.

And the fluorescence intensity [2, 19]?
The fluorescence intensity was 14.5 MFI.

What about the fluorescence intensity [2, 20] of the same binder?
Its fluorescence intensity is 20.2 MFI.

What about the fluorescence intensity [2, 13] of the same binder?
The fluorescence intensity was 20 MFI.

And the fluorescence intensity [2, 14]?
The fluorescence intensity was 33 MFI.

And the fluorescence intensity [3, 15]?
The fluorescence intensity was 18.8 MFI.

What about the fluorescence intensity [3, 16] of the same binder?
Its fluorescence intensity is 17 MFI.

What about the fluorescence intensity [3, 17] of the same binder?
The fluorescence intensity was 17 MFI.

And the fluorescence intensity [3, 18]?
The fluorescence intensity was 16.5 MFI.

What about the fluorescence intensity [3, 19] of the same binder?
The fluorescence intensity was 16.5 MFI.

What about the fluorescence intensity [3, 20] of the same binder?
Its fluorescence intensity is 18.2 MFI.

And the fluorescence intensity [3, 13]?
Its fluorescence intensity is 24 MFI.

And the fluorescence intensity [3, 14]?
The fluorescence intensity was 46 MFI.

And the fluorescence intensity [4, 15]?
The fluorescence intensity was 15.5 MFI.

And the fluorescence intensity [4, 16]?
The fluorescence intensity was 12 MFI.

What about the fluorescence intensity [4, 17] of the same binder?
Its fluorescence intensity is 13.8 MFI.

What about the fluorescence intensity [4, 18] of the same binder?
The fluorescence intensity was 13.5 MFI.

And the fluorescence intensity [4, 19]?
Its fluorescence intensity is 14.5 MFI.

What about the fluorescence intensity [4, 20] of the same binder?
The fluorescence intensity was 17 MFI.

And the fluorescence intensity [4, 13]?
The fluorescence intensity was 19.2 MFI.

And the fluorescence intensity [4, 14]?
Its fluorescence intensity is 39.5 MFI.

What about the fluorescence intensity [5, 15] of the same binder?
The fluorescence intensity was 24.5 MFI.

What about the fluorescence intensity [5, 16] of the same binder?
Its fluorescence intensity is 22.5 MFI.

What about the fluorescence intensity [5, 17] of the same binder?
Its fluorescence intensity is 22.5 MFI.

And the fluorescence intensity [5, 18]?
Its fluorescence intensity is 23 MFI.

What about the fluorescence intensity [5, 19] of the same binder?
Its fluorescence intensity is 23 MFI.

What about the fluorescence intensity [5, 20] of the same binder?
The fluorescence intensity was 25 MFI.

What about the fluorescence intensity [5, 13] of the same binder?
Its fluorescence intensity is 33.2 MFI.

And the fluorescence intensity [5, 14]?
Its fluorescence intensity is 53.5 MFI.

What about the fluorescence intensity [6, 15] of the same binder?
Its fluorescence intensity is 21 MFI.

What about the fluorescence intensity [6, 16] of the same binder?
The fluorescence intensity was 19.8 MFI.

What about the fluorescence intensity [6, 17] of the same binder?
The fluorescence intensity was 20 MFI.

What about the fluorescence intensity [6, 18] of the same binder?
Its fluorescence intensity is 19.5 MFI.

And the fluorescence intensity [6, 19]?
The fluorescence intensity was 20.8 MFI.

What about the fluorescence intensity [6, 20] of the same binder?
The fluorescence intensity was 21 MFI.

And the fluorescence intensity [6, 13]?
The fluorescence intensity was 23 MFI.

What about the fluorescence intensity [6, 14] of the same binder?
The fluorescence intensity was 34.2 MFI.

And the fluorescence intensity [7, 15]?
Its fluorescence intensity is 24.5 MFI.

And the fluorescence intensity [7, 16]?
The fluorescence intensity was 24.5 MFI.

And the fluorescence intensity [7, 17]?
The fluorescence intensity was 23.5 MFI.

And the fluorescence intensity [7, 18]?
The fluorescence intensity was 25.5 MFI.

And the fluorescence intensity [7, 19]?
Its fluorescence intensity is 22 MFI.

What about the fluorescence intensity [7, 20] of the same binder?
Its fluorescence intensity is 25.5 MFI.

And the fluorescence intensity [7, 13]?
The fluorescence intensity was 28 MFI.

And the fluorescence intensity [7, 14]?
The fluorescence intensity was 37.8 MFI.

What about the fluorescence intensity [8, 15] of the same binder?
The fluorescence intensity was 24 MFI.

And the fluorescence intensity [8, 16]?
The fluorescence intensity was 22 MFI.

And the fluorescence intensity [8, 17]?
Its fluorescence intensity is 22.5 MFI.

And the fluorescence intensity [8, 18]?
Its fluorescence intensity is 23.5 MFI.

What about the fluorescence intensity [8, 19] of the same binder?
The fluorescence intensity was 23 MFI.

And the fluorescence intensity [8, 20]?
Its fluorescence intensity is 23.8 MFI.

And the fluorescence intensity [8, 13]?
Its fluorescence intensity is 26.5 MFI.

What about the fluorescence intensity [8, 14] of the same binder?
The fluorescence intensity was 42.5 MFI.

And the fluorescence intensity [9, 15]?
Its fluorescence intensity is 29.5 MFI.

What about the fluorescence intensity [9, 16] of the same binder?
The fluorescence intensity was 29.5 MFI.

What about the fluorescence intensity [9, 17] of the same binder?
The fluorescence intensity was 28 MFI.

And the fluorescence intensity [9, 18]?
Its fluorescence intensity is 29 MFI.

What about the fluorescence intensity [9, 19] of the same binder?
Its fluorescence intensity is 30 MFI.

And the fluorescence intensity [9, 20]?
The fluorescence intensity was 31 MFI.

And the fluorescence intensity [9, 13]?
Its fluorescence intensity is 38.5 MFI.

What about the fluorescence intensity [9, 14] of the same binder?
Its fluorescence intensity is 55.2 MFI.

What about the fluorescence intensity [10, 15] of the same binder?
The fluorescence intensity was 18.2 MFI.

And the fluorescence intensity [10, 16]?
The fluorescence intensity was 16.5 MFI.

And the fluorescence intensity [10, 17]?
The fluorescence intensity was 18.5 MFI.

What about the fluorescence intensity [10, 18] of the same binder?
The fluorescence intensity was 18 MFI.

What about the fluorescence intensity [10, 19] of the same binder?
Its fluorescence intensity is 18 MFI.

And the fluorescence intensity [10, 20]?
The fluorescence intensity was 20.5 MFI.

What about the fluorescence intensity [10, 13] of the same binder?
Its fluorescence intensity is 25 MFI.

And the fluorescence intensity [10, 14]?
Its fluorescence intensity is 61 MFI.

And the fluorescence intensity [11, 15]?
Its fluorescence intensity is 21.5 MFI.

And the fluorescence intensity [11, 16]?
Its fluorescence intensity is 22 MFI.

And the fluorescence intensity [11, 17]?
The fluorescence intensity was 22.5 MFI.

And the fluorescence intensity [11, 18]?
The fluorescence intensity was 22.5 MFI.

And the fluorescence intensity [11, 19]?
Its fluorescence intensity is 22.5 MFI.

And the fluorescence intensity [11, 20]?
Its fluorescence intensity is 26 MFI.

And the fluorescence intensity [11, 13]?
The fluorescence intensity was 35.2 MFI.

What about the fluorescence intensity [11, 14] of the same binder?
The fluorescence intensity was 50.8 MFI.

What about the fluorescence intensity [12, 15] of the same binder?
Its fluorescence intensity is 17 MFI.

And the fluorescence intensity [12, 16]?
The fluorescence intensity was 16 MFI.

What about the fluorescence intensity [12, 17] of the same binder?
The fluorescence intensity was 19 MFI.

And the fluorescence intensity [12, 18]?
Its fluorescence intensity is 16.8 MFI.

What about the fluorescence intensity [12, 19] of the same binder?
Its fluorescence intensity is 17.2 MFI.

And the fluorescence intensity [12, 20]?
The fluorescence intensity was 19 MFI.

What about the fluorescence intensity [12, 13] of the same binder?
The fluorescence intensity was 24.8 MFI.

And the fluorescence intensity [12, 14]?
Its fluorescence intensity is 46 MFI.
